Results are given in words; binding and its absence hold for the method and conditions named. Binding seen in cells or lysates may run through a third protein.
Biological target: protein jagged‐1 (Jagged1) (human (endogenous in HUVEC)) (UniProt P78504)
Assay: co-IP; Jag1 precipitated with antibody 28H8 from HUVEC lysates (50 mM Tris pH 7.5, 150 mM NaCl, 1% Triton X-100, 0.1% SDS; overnight 4 °C; magnetic beads; washes with 250 mM NaCl, 0.1% NP-40); cells static or exposed to flow (0.8 Pa FSS, orbital shaker); Western blot for VEGFR2 and Src

Protein sequences, listed by entry. Tags and fused reporters are not part of them. Residues count along the entry.
UniProt P78504, residues 34-1218: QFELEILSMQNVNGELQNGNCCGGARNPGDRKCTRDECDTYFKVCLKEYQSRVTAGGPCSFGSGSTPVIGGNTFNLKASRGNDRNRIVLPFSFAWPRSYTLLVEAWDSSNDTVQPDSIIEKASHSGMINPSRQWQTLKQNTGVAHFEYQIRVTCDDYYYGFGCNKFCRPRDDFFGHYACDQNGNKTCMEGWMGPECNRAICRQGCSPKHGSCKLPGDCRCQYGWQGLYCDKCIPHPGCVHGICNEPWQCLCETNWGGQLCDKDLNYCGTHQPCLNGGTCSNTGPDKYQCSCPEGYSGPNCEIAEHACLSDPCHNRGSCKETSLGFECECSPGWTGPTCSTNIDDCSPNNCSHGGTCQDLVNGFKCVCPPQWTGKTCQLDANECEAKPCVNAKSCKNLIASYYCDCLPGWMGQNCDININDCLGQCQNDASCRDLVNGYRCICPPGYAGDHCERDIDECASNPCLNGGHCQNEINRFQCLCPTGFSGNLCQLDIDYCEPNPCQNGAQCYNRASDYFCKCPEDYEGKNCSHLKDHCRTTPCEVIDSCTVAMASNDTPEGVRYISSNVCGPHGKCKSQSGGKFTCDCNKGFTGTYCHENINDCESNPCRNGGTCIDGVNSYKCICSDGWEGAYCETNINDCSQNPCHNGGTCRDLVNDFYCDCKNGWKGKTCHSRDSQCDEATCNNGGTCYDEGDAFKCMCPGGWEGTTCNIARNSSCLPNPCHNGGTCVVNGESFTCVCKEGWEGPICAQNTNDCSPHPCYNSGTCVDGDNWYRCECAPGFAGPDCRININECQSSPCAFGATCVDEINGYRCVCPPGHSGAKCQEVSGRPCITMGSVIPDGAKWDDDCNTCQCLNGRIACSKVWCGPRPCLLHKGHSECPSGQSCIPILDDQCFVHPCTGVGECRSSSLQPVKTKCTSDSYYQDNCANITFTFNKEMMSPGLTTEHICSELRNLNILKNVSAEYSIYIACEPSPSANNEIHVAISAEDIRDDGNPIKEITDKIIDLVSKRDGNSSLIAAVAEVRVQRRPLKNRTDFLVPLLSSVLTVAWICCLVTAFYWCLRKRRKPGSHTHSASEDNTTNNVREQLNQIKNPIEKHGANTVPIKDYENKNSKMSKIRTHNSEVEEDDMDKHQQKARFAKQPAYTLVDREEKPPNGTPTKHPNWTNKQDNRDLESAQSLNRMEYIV
UniProt P35968, residues 20-1356: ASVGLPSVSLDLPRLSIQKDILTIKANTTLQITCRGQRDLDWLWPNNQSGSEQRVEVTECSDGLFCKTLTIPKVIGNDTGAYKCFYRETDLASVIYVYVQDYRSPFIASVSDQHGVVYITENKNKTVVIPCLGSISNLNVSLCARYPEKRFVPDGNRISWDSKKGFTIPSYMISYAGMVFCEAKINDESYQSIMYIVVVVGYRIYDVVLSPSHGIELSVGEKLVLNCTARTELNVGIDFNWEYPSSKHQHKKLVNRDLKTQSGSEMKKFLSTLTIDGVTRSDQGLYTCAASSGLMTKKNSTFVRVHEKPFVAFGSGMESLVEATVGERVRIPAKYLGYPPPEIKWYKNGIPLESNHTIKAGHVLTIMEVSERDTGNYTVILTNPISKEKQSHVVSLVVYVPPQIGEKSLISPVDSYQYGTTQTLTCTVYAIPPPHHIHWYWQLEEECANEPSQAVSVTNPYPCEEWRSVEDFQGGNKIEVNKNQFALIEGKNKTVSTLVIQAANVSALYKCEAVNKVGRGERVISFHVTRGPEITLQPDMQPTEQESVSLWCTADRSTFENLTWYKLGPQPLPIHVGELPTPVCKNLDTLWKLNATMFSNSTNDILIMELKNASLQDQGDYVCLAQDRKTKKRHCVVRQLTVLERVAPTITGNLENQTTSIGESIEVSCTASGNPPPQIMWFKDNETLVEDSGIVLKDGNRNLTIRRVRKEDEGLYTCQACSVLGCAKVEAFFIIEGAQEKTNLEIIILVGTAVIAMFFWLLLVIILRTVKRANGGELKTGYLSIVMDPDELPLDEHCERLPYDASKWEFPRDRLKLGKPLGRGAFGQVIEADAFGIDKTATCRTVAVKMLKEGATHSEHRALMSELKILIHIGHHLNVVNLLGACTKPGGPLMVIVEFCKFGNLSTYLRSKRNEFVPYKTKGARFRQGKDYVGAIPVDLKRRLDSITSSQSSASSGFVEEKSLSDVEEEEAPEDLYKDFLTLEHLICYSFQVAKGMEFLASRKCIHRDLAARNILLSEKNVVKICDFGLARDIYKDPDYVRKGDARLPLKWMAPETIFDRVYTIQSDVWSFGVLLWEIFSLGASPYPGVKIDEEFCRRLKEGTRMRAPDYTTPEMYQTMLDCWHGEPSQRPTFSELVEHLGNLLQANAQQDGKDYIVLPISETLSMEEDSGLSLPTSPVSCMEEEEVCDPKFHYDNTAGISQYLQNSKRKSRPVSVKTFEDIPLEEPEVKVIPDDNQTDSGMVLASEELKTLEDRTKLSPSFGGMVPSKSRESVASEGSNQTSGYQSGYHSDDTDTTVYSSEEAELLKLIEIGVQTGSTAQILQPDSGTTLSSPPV

Q: How did the binding turn out when “vascular endothelial growth factor receptor 2 (VEGFR2) (from UniProt P35968 20-1356)” was run?
A: The binding was “no binding”.

— article PMC13440619
